# Values from PubChem BioAssay AID1671195 (Yale University, 2021).
# Purpose: 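Genes whose knockdown alters LDL uptake in liver cancer cells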 (primary screen)
# Cell system: human Huh7 hepatoma cells
# Reagent: siRNA pool against human genes, 18 nM
# Timing: about 2 to 2.5 days of knockdown, then 8 h LDL uptake
# Challenge: DiI-labelled LDL at 30 µg/ml for 8 h, in lipoprotein-deficient serum medium
# Read-out: 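Fluorescent LDL signal imaged in cells, scaled to the plate median, robust z-score for each replicate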
# Reading the numbers: robust z-score: higher = more LDL uptake after knockdown
# Rule for the call: 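a gene counts as active if at least two replicate z-scores exceed ±2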
# The deposit covers about 22,000 reagents; shown is an unselected part. Over the whole deposit, about 1,510 (6.9%) were called active. 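Active includes knockdowns raising or lowering LDL uptake; positive z-scores mean more uptake, negative mean less.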 The numbers tell different reagents against one gene apart. Reagent sequences are not shown.
Target gene,reagent,"robust z-score, replicate 1","robust z-score, replicate 2","robust z-score, replicate 3",call
RTKN2,1,2.53,2,0.743,active
SRP14P1,1,-0.456,-0.832,-0.592,inactive
PIMREG,1,-1.16,-0.716,-1.29,inactive
UBE2T,1,0.398,0.216,-0.412,inactive
ANKRD13C-DT,1,0.271,-0.595,-0.707,inactive
ERF,1,0.937,0.339,2.58,inactive
PAN3,1,-0.445,-0.806,-0.422,inactive
AGPS-DT,1,0.0218,-0.035,0.119,inactive
CPT1C,1,-2.5,0.0418,-0.191,inactive
LOC387720 (retired record),1,-0.29,-0.444,-0.386,inactive
MSLN,1,-0.817,-1.25,-1.29,inactive
RCOR2,1,-0.853,-0.705,-0.921,inactive
ABRA,1,-0.387,0.572,-0.5,inactive
LOC285110 (retired record),1,-0.659,-0.552,-0.427,inactive
GNAI2,1,-0.504,-0.63,-0.663,inactive
NHSL2,1,-0.416,1.88,1.31,inactive
NHSL2,2,-0.213,-0.502,0.0783,inactive
ZMAT4,1,-0.58,-0.478,-1.02,inactive
RPP25L,1,-0.867,-1.07,-0.347,inactive
CNGA4,1,-0.752,-0.648,-0.611,inactive
CPPED1,1,-2.03,0.0583,-0.502,inactive
RAB43P1,1,2.24,2.76,2.95,active
MTFR2,1,-0.0275,-0.507,-0.485,inactive
FHIP1B,1,0.729,0.85,0.853,inactive
RCVRN,1,0.397,0.445,0.215,inactive
LOC389178 (retired record),1,1.06,0.741,0.434,inactive
EPHB2,1,2.11,1.15,-0.0758,inactive
TMEM223,1,0.704,0.142,1.09,inactive
TTLL5,1,-1.39,-1.17,-1.43,inactive
GNGT1,1,-1.01,-0.997,-0.298,inactive
COL9A1,1,1.65,3.72,2.8,active
NIM1K,1,-0.809,-0.881,-0.978,inactive
SPATS2,1,2.95,2.15,2.73,active
KBTBD13,1,0.872,1.44,0.812,inactive
MYADM,1,0.734,1.27,0.397,inactive
ZBED8,1,1.11,0.595,0.212,inactive
RECQL5,1,-1.66,-0.921,-1.7,inactive
LSR,1,0.205,-1,0.81,inactive
RIC3,1,-0.515,-1.02,-0.406,inactive
PPP1R16A,1,-0.125,-0.622,0.0766,inactive
LMNB1,1,1.24,0.747,-0.0426,inactive
PRRC2B,1,1.68,2.22,1.88,inactive
PPIP5K2,1,1.74,1.57,2.67,inactive
SRRM1,1,0.214,1.1,0.304,inactive
GPBP1,1,-0.129,1.58,1.03,inactive
NDUFS8,1,0.373,0.775,0.0715,inactive
LHCGR,1,-1.25,-0.889,-1.52,inactive
LOC440868 (retired record),1,-0.632,-0.272,-0.667,inactive
HTRA4,1,-2.65,-2.27,-2.28,active
TCIRG1,1,0.243,0.958,0.0148,inactive
NOTO,1,-1.41,-0.194,-0.362,inactive
BMERB1,1,2.29,2.04,1.42,active
SUGP2,1,1.13,0.756,0.829,inactive
CCN2,1,0.943,0.499,1.94,inactive
CYP2C9,1,0.609,0.366,0.14,inactive
PYDC2,1,0.578,-0.184,0.242,inactive
IDI2-AS1,1,0.0498,1.09,1.85,inactive
JPH4,1,0.459,-0.383,-0.465,inactive
CNOT3,1,-1.87,-1.75,-2.09,inactive
LOC440723 (retired record),1,1.31,2.37,1.84,inactive
BECN1,1,1.18,0.295,0.931,inactive
RUSC1-AS1,1,-0.124,-0.481,-0.572,inactive
PALM3,1,0.581,0.823,0.127,inactive
LINC02213,1,0.393,0.555,0.214,inactive
KRTAP5-9,1,-0.51,-0.509,-0.108,inactive
GGT5,1,-0.0721,0.947,0.215,inactive
PATJ,1,-0.0059,1.43,1.18,inactive
PSMD3,1,1.1,1.88,1.04,inactive

10 entries from above, set out differently:
{"Target gene":"BMERB1","reagent":1,"robust z-score, replicate 1":2.29,"robust z-score, replicate 2":2.04,"robust z-score, replicate 3":1.42,"call":"active"}
{"Target gene":"SUGP2","reagent":1,"robust z-score, replicate 1":1.13,"robust z-score, replicate 2":0.756,"robust z-score, replicate 3":0.829,"call":"inactive"}
{"Target gene":"CCN2","reagent":1,"robust z-score, replicate 1":0.943,"robust z-score, replicate 2":0.499,"robust z-score, replicate 3":1.94,"call":"inactive"}
{"Target gene":"CYP2C9","reagent":1,"robust z-score, replicate 1":0.609,"robust z-score, replicate 2":0.366,"robust z-score, replicate 3":0.14,"call":"inactive"}
{"Target gene":"PYDC2","reagent":1,"robust z-score, replicate 1":0.578,"robust z-score, replicate 2":-0.184,"robust z-score, replicate 3":0.242,"call":"inactive"}
{"Target gene":"IDI2-AS1","reagent":1,"robust z-score, replicate 1":0.0498,"robust z-score, replicate 2":1.09,"robust z-score, replicate 3":1.85,"call":"inactive"}
{"Target gene":"JPH4","reagent":1,"robust z-score, replicate 1":0.459,"robust z-score, replicate 2":-0.383,"robust z-score, replicate 3":-0.465,"call":"inactive"}
{"Target gene":"CNOT3","reagent":1,"robust z-score, replicate 1":-1.87,"robust z-score, replicate 2":-1.75,"robust z-score, replicate 3":-2.09,"call":"inactive"}
{"Target gene":"LOC440723 (retired record)","reagent":1,"robust z-score, replicate 1":1.31,"robust z-score, replicate 2":2.37,"robust z-score, replicate 3":1.84,"call":"inactive"}
{"Target gene":"BECN1","reagent":1,"robust z-score, replicate 1":1.18,"robust z-score, replicate 2":0.295,"robust z-score, replicate 3":0.931,"call":"inactive"}
